56 molecules from PubChem BioAssay AID2685 (National Center for Advancing Translational Sciences (NCATS), 2010) can be followed below.

A short description of the assay: qHTS Assay for Lipid Storage Modulators in Drosophila S3 Cells.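 On cell number change: cells counted by Cell Tracker Red CMTPX staining in the red channel.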 The following applies: BODIPY lipid droplet fluorescence, 18-24 h; for cell number change: measured here: cell count max response, cells fed with added oleic acid. The method, boiled down:
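Laser-scanning cytometry quantifies lipid droplet accumulation (500–530 nm total intensity; droplet/cell object ratio) in oleic acid-fed (400 uM added) Drosophila S3 cells treated with a concentration series. 20 uM Triacsin C defined 100% inhibition.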
A general note: In qHTS, concentration-response curves come from the screen itself.

The mark [1] stands for this setting: measured here: cell number channel AC50, cells fed with added oleic acid.
Where [2] appears, read: measured here: lipid fluorescence (Fed channel) AC50, cells fed with added oleic acid.

Some of the results follow. The main result of the screen is listed elsewhere. These columns were measured beside it and carry no call. Compounds called inactive in the main read-out are mostly missing here. Words in brackets tell the shape of the fitted curve; partial curves, single points and poor fits give uncertain potencies.

As usually defined, the AC50 is the concentration giving half of the maximal activity seen. `O=C(NCc1ccc(F)cc1)C1CCCN(c2nc3ccsc3c(=O)s2)C1` (centres undefined): the cell number change is -60.1%. Further, the concentration at half-maximal activity (AC50) under setting [1] is 29.1 µM [falling, partial curve, poor fit]. The AC50 under setting [2] was 29.1 µM [falling, single point].
Turning to `NCCCNc1nc(N)c([N+](=O)[O-])c(NC2CCCCC2)n1`, the cell number change was found to be 14.4%. Moreover, the AC50 under setting [2] is 29.1 µM [rising, single point].
`O=C(COC(=O)c1cccs1)NC12CC3CC(CC(C3)C1)C2`: the cell number change was -102%. In addition, the AC50 under setting [1] was 23.1 µM [falling, single point]. Also, the AC50 under setting [2] is 29.1 µM [falling, partial curve].
On to `COc1ccc(C2(C)NC(=O)N(CC(=O)NCc3ccccc3F)C2=O)cc1` (centres undefined), for which the cell number change was determined as 34.1%. For the same molecule, the AC50 under setting [1] is 29.1 µM [rising, single point].
Regarding `CN(C)C1=NC[C@H](Cc2ccccc2)N1CCCCc1ccccc1`, the cell number change worked out at 16.7%. The AC50 under setting [1] was 1.16 µM [rising, full curve, poor fit]. Further, the AC50 under setting [2] was 8.2 µM [rising, partial curve, poor fit].
For `O=C(Cc1ccccc1)NCC(=O)OCc1ccc([N+](=O)[O-])cc1`, the cell number change came out at 50%. The AC50 under setting [1] was 13 µM [rising, single point].
For `Cc1ccc(C2CC(=O)C=C(NCc3ccccc3)C2)cc1` (centres undefined), the cell number change came to 13%. The AC50 under setting [2] was 0.116 µM [falling, full curve, poor fit].
`O=[N+]([O-])c1ccc(Sc2nc3ccccc3o2)c([N+](=O)[O-])c1`: the cell number change was -46.5%. Further, under setting [1], the AC50 was 23.1 µM [falling, single point]. In addition, the half-maximal activity concentration (AC50) under setting [2] was 29.1 µM [falling, single point].
With `COc1cccc(-c2nnc(N(C)C(=O)c3ccno3)s2)c1`, the cell number change was determined as 17%. In addition, the AC50 under setting [1] is 0.0366 µM [rising, full curve, poor fit]. In addition, under setting [2], the AC50 is 6.51 µM [rising, partial curve].
With `CCCn1c(CCC(=O)O)ccc1-c1ccccc1`, the cell number change is 24%. Further, under setting [2], the AC50 is 0.00461 µM [rising, full curve, poor fit].
For the molecule `CCc1ccc(CN(C)C(=O)c2cc(COc3cccc(C(F)(F)F)c3)on2)nc1`, the cell number change was found to be 43.8%. In addition, the AC50 under setting [1] was 20.6 µM [rising, partial curve, poor fit]. In addition, the AC50 under setting [2] was 9.2 µM [rising, partial curve].
For `CSCCC(NS(=O)(=O)c1ccc(Cl)cc1)C(=O)OCC(=O)NC1CCCCC1` (centres undefined), the cell number change was -11.4%. Besides, the AC50 under setting [2] is 11.6 µM [rising, partial curve].
Consider `O=C(CN1CCc2ccccc2C1)Nc1cc(S(=O)(=O)N2CCOCC2)ccc1N1CCCC1`, for which the cell number change was -25.5%. Also, under setting [1], the AC50 was 6.51 µM [falling, single point]. For the same molecule, under setting [2], the half-maximal activity concentration (AC50) is 2.59 µM [rising, full curve, poor fit].
`COc1ccc(S(=O)CC(=O)Nc2ccccc2Cl)cc1` (centres undefined): the half-maximal activity concentration (AC50) under setting [2] is 4.61 µM [falling, partial curve].
Turning to `O=C(COC(=O)/C=C/c1cccc(C(F)(F)F)c1)NCCN1C(=O)CSC1=O`, the cell number change was -11%. Under setting [2], the half-maximal activity concentration (AC50) is 0.366 µM [falling, partial curve].
With `O=C(COc1ccc(Cl)cc1)NCCCNC(=O)c1cnccn1`, the cell number change turned out to be 15.4%. The AC50 under setting [2] was 29.1 µM [rising, single point].
As to `Clc1ccc(-c2csc3ncnc(NCCN4CCOCC4)c23)cc1`, the cell number change is 69.7%. In addition, the AC50 under setting [1] was 18.4 µM [rising, partial curve].
As to `COc1cc(/C=C/c2ccc(O)cc2)cc(OC)c1`, the cell number change is -59.1%. Besides, the AC50 under setting [1] was 14.6 µM [falling, partial curve]. In addition, the AC50 under setting [2] is 13 µM [falling, partial curve].
Take `CCOc1ccc(NS(=O)(=O)c2ccc(C(=O)N(C)CC(=O)Nc3ccc(C)cc3)cc2)cc1`: the cell number change is -45.5%. Besides, the AC50 under setting [1] is 16.4 µM [falling, partial curve, poor fit].
Take `O=C(CC1(O)C(=O)Nc2ccccc21)c1ccc2c(c1)OCO2` (centres undefined): the cell number change was -10.9%. Further, the AC50 under setting [2] is 18.4 µM [falling, partial curve].
Consider `CC1CCN(CCCNC(=O)c2cn(C)c3ccc(S(=O)(=O)N4CCCC4)cc3c2=O)CC1`, for which the cell number change was -70.8%. In addition, the AC50 under setting [1] is 29.1 µM [falling, single point].
Regarding `CCC(C)[C@H](NC(=O)NCc1ccccc1)C(=O)O` (some centres undefined), the cell number change is -33.4%. For the same molecule, the AC50 under setting [1] is 0.13 µM [falling, full curve, poor fit]. The concentration at half-maximal activity (AC50) under setting [2] is 29.1 µM [falling, single point].
In the case of `COCCCNCCOCCOc1c(OC)cccc1OC`, the cell number change came out at 6.53%.
For `COC(=O)c1[nH]c2ccc(C)cc2c1NC(=O)c1ccccc1[N+](=O)[O-]`, the cell number change worked out at 47.5%. The AC50 under setting [1] was 29.1 µM [rising, single point].
For `CN(C)C1=NC[C@H](Cc2ccccc2)N1CC1CCCCC1`, the cell number change was -0.765%. The half-maximal activity concentration (AC50) under setting [2] is 8.2 µM [rising, partial curve, poor fit].
As for `O=C(O)c1ccnc2c(O)cccc12`, the cell number change was found to be 16%. Besides, under setting [2], the AC50 was 1.64 µM [rising, partial curve].
Turning to `COCC(C)NC(=O)c1cc(-c2ccccc2OC)on1` (centres undefined), the cell number change is -8.14%. Further, the AC50 under setting [2] is 29.1 µM [rising, single point].
For the molecule `O=C(NCC(c1cccs1)N1CCOCC1)c1cn(-c2ccccc2)nc1-c1ccc(F)cc1` (centres undefined), the cell number change was found to be 75.8%. The AC50 under setting [1] was 5.8 µM [rising, full curve, poor fit].
In the case of `COc1cc(OC)cc(C(=O)N2c3ccc(F)cc3CCC2C)c1` (centres undefined), the AC50 under setting [1] was 2.91 µM [rising, single point].
Consider `CCSc1ccc(-c2nn(-c3ccccc3)cc2/C=C(/C#N)C(=O)NC)cc1`, for which the cell number change is -32.5%. The concentration at half-maximal activity (AC50) under setting [1] is 1.46 µM [falling, full curve]. Further, the AC50 under setting [2] was 1.64 µM [falling, full curve].
Take `CCOC(=O)c1ncn2c1CN(C)C(=O)c1cc(F)ccc1-2`: the AC50 under setting [2] is 29.1 µM [rising, single point].
Consider `Cc1cccc(NC(=O)NC2CCCCCCC2)c1`, for which the cell number change was -22.3%. Further, under setting [2], the AC50 was 29.1 µM [falling, single point].
Regarding `O=C(/C=C/c1c(F)cccc1Cl)Nc1ncccn1`, the cell number change is -0.503%. Moreover, the AC50 under setting [1] was 2.91 µM [rising, single point]. Further, the AC50 under setting [2] was 6.51 µM [rising, single point].
With `Cc1cc(C)cc(NC(=O)c2cc(S(=O)(=O)N3CCCC3)cn2C)c1`, the cell number change was -3.46%. The AC50 under setting [2] is 23.1 µM [falling, single point].
On to `CC(C)N(C(=O)CC1ON(C)C(=O)N1c1ccc(Cl)cc1)C(C)C` (centres undefined), for which the cell number change worked out at 22.9%. Under setting [2], the AC50 is 18.4 µM [rising, single point].
As for `CCOC(=O)c1[nH]c2ccc(OCC)cc2c1NC(=O)CN1CCN(c2ccccn2)CC1`, the cell number change is -5.75%. The AC50 under setting [2] was 18.4 µM [rising, partial curve, poor fit].
With `CCOC(=O)N1CCN(C(=O)CCn2nc(-c3ccc(Cl)cc3)ccc2=O)CC1`, the cell number change was -15.2%. For the same molecule, the AC50 under setting [2] was 29.1 µM [falling, single point].
Turning to `Cc1nc(CC(=O)c2c(C)cc(O)cc2O)cs1`, the cell number change is -39.3%. Besides, under setting [1], the AC50 was 29.1 µM [falling, partial curve, poor fit]. The concentration at half-maximal activity (AC50) under setting [2] was 0.0259 µM [falling, full curve, poor fit].
In the case of `COc1ccc2c(c1)oc(=O)c1c3ccccc3[nH]c21`, the cell number change was -6.43%.
On the same count and under the same terms, as for `C#CCOC(=O)Nc1cccn(Cc2c(Cl)cccc2Cl)c1=O`, the figure is 13.9%; as for `Cc1ccc(NC(=S)N(CCCN2CCOCC2)Cc2ccccn2)cc1`, 12%.
In the case of `Nc1c(N(Cc2ccco2)C(=O)c2ccccc2F)c(=O)[nH]c(=O)n1Cc1ccccc1`, the cell number change was -11.6%. Moreover, under setting [2], the concentration at half-maximal activity (AC50) is 6.51 µM [rising, single point].
Take `Cc1ccccc1OCC(=O)NC(=S)Nc1ccc(N2CCOCC2)c(Cl)c1`: under setting [2], the concentration at half-maximal activity (AC50) is 0.00461 µM [falling, full curve, poor fit].
The same measure, in the same setting: the same measure for `COc1cc(OC)c(C2=NOC(C(=O)NCCc3ccccc3)C2)cc1Cl` (centres undefined): 0.82 µM [rising, single point].
With `CC(C)COP(=O)(c1ccc(N(C)C)cc1)C(Nc1ccccc1)c1ccccc1` (centres undefined), the cell number change was -16.4%. The AC50 under setting [2] was 14.6 µM [falling, single point].
For the molecule `FC(F)(F)c1cccc(CN2CCCCCC2)c1`, the cell number change was -11.6%. The AC50 under setting [2] was 1.16 µM [falling, full curve].
On to `C#CCOCCOCCOCCNc1nc(N2CCN(C(=O)Cn3cc(CCCCN)nn3)CC2)nc(N2CCN(C(=O)[C@H]([C@@H](C)CC)n3cc(CCCCN)nn3)CC2)n1`, for which the cell number change is -13.7%.
Take `Cc1ccc(NC(=O)COC(=O)[C@@H]2CCCN2C(=O)c2cccs2)cc1S(=O)(=O)N(C)C`: the cell number change came out at 10.6%. For the same molecule, under setting [2], the AC50 was 0.58 µM [rising, full curve].
For the molecule `COc1ccccc1-c1nc(SCC(=O)N(C)c2ccccc2)c2c(=O)n(C)c(=O)n(C)c2n1`, the cell number change was -37.4%. Under setting [1], the AC50 is 0.116 µM [falling, full curve, poor fit].
With `CSc1ccc(/C=N/n2c(COc3ccccc3)n[nH]c2=S)cc1`, under setting [2], the AC50 is 0.58 µM [falling, single point].
In the case of `CCc1nnc(NC(=O)Cc2cc(OC)c(OC)c(OC)c2)s1`, the cell number change came out at 31%. For the same molecule, the AC50 under setting [1] is 2.59 µM [rising, full curve]. In addition, the concentration at half-maximal activity (AC50) under setting [2] was 20.6 µM [rising, partial curve].
For the molecule `Oc1ccc(N=Nc2nc(-c3ccccc3)c(-c3ccccc3)[nH]2)cc1`, the cell number change was -49.5%. For the same molecule, the AC50 under setting [1] was 16.4 µM [falling, single point]. The concentration at half-maximal activity (AC50) under setting [2] is 23.1 µM [falling, single point].
Turning to `Cc1ccc(C)c(S(=O)(=O)N2CCCOC2CNC(=O)C(=O)NCc2cccnc2)c1` (centres undefined), the cell number change was -17.1%. Also, under setting [2], the AC50 was 0.0116 µM [falling, full curve].
Turning to `COc1ccc(NC(=O)CC2C(=O)N(c3ccc(Cl)cc3)C(=S)N2NC(=O)c2cccc(F)c2)cc1` (centres undefined), the cell number change amounted to 7.33%. Further, the half-maximal activity concentration (AC50) under setting [2] is 0.116 µM [rising, full curve, poor fit].
As for `CCN1C(=O)CC(NCc2ccc3c(c2)OCO3)C1=O` (centres undefined), the cell number change was -17.2%.
With `CCOc1nc(-c2ccc(OC)cc2)ccc1-c1noc(C)n1`, the AC50 is 2.31 µM [rising, partial curve] under setting [1] and 2.06 µM [rising, partial curve] under setting [2].
